Test [1] addresses T1, GST-RacGEF (GxcDD residues 395-707 containing the RacGEF domain, GST fusion) (Dictyostelium discoideum) (UniProt Q1ZXH8).
T1 sequence: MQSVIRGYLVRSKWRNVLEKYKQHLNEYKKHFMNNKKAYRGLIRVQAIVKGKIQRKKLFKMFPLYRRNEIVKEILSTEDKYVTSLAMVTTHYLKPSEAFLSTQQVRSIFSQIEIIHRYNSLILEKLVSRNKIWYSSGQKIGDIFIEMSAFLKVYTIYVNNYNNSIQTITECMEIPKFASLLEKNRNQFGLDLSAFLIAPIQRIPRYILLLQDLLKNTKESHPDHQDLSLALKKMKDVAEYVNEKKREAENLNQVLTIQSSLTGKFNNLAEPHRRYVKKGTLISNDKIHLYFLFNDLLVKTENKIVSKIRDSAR
Description: pull-down; GST-RacGEF on glutathione-sepharose beads incubated 3 hrs at 4°C with lysates of AX2 cells expressing GFP-Rac fusions (25 mM Tris pH 7.5, 150 mM NaCl, 5 mM EDTA, 0.5% Triton X-100, 1 mM NaF, 0.5 mM Na3VO4, 1 mM DTT); eluates immunoblotted with a GFP monoclonal antibody; only the target purified.

Sequences of proteins named here, by UniProt entry; tags and fusion partners are left off. A change or cut given only in a name is not applied to a line headed by its entry.
UniProt P34147: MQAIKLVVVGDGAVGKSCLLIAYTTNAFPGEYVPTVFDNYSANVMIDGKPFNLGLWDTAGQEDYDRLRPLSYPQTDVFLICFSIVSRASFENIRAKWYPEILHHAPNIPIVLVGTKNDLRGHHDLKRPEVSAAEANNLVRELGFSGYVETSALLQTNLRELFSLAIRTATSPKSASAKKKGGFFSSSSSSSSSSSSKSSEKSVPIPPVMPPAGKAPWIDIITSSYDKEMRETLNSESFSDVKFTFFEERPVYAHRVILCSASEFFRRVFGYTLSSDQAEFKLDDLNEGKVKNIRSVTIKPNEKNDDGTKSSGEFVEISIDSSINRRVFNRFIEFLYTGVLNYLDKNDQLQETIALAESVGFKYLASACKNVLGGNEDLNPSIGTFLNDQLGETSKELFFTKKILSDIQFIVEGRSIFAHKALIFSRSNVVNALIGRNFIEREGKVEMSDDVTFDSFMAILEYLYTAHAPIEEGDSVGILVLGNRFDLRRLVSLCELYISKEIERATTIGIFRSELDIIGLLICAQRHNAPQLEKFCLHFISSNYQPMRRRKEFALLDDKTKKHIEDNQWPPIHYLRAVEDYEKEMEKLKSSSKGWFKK

Test [2] addresses GST-ArfGAP-PH (GxcDD residues 1269-1619 containing the ArfGAP-PH tandem, GST fusion) (Dictyostelium discoideum) (UniProt Q1ZXH8). Description: pull-down; GST-ArfGAP-PH on glutathione-sepharose beads incubated with wild type AX2 cell lysates; a unique band identified by MALDI-TOF mass spectroscopy, confirmed by western blot with GxcDD polyclonal antibodies; only the target purified. (In general: In western blotting, separated proteins are transferred to a membrane and probed.)

The target is the same in test [3]. The experiment in a line: pull-down; GST-RacGEF or GST-ArfGAP-PH on glutathione-sepharose beads incubated with lysates of AX2 cells expressing GFP-CH; eluates immunoblotted with a GFP monoclonal antibody; only the target purified.

These are yes or no findings as the source states them, for the method shown. In cells and extracts the contact can be indirect. Binding can be weak; no strength is given. For part of these data: Tags and fused reporters may be left off the sequences shown.

In the case of “GFP-RacA (GTPase domain) (from UniProt P34147) (domain or fragment)”, the binding entry in test [1] is given as “binds”. Take “GxcDD (Guanine exchange factor for Rac GTPases), full length (from UniProt Q1ZXH8 1-1632)”: the binding result in test [2] is “binds”.

B1: GFP-CH (first 134 residues of GxcDD with the CH domain, fused to GFP) (domain or fragment, UniProt Q1ZXH8 1-134)
chain: MQPKDYMSSSHANWENIQIDSFTSWINQHLSERGLSVKDLSVDFQDGVLLLNLLEILSGKKIARYVRSPKFLQHKIDNIMIAFNFMEKAFDIKVFGCNAKDIVDGNLKQTMGVIFLLIQKIKVNLHLDHLQEQQ
As for B1, the binding entry in test [3] is “binds”.

The record behind these values is publication PMC1914345.
